{"source": "patent US6617120", "key": {"[1]": {"system": "RXR (endogenous, without OR-1)", "experiment": "activity in cells", "details": "no induction by 9-cis retinoic acid without OR-1; protein in cells; only the site is given"}, "[2]": {"system": "OR-1 with RXR in transfected cells", "experiment": "activity in cells", "details": "DR4 reporter induced by 100 nM 9-cis retinoic acid; protein in cells; only the site is given"}, "[3]": {"system": "RXR", "experiment": "EMSA", "details": "RXR alone; protein translated in vitro"}}, "note": "For part of these data: The exact form of at least one protein or probe is not confirmed. For part of these data: A negative result means that nothing was seen under these conditions."}
{"sequence": "AGTCAGGTCACTCGAGGTCAGTCA (double strand) [DR4]", "values": [{"measurement": "activity on this sequence", "setting": "[1]", "value": "not active"}, {"measurement": "activity on this sequence", "setting": "[2]", "value": "active"}, {"measurement": "binding result", "setting": "[3]", "value": "no binding"}]}
